These are yes or no findings as the source states them, for the method shown. In cells and extracts the contact can be indirect. These calls come from enrichment with a bait or labelling near it, and not all partners need be listed. No binding means not detected with the bait.

The chains behind the UniProt entries cited, without tags or fusion partners.
UniProt P30260: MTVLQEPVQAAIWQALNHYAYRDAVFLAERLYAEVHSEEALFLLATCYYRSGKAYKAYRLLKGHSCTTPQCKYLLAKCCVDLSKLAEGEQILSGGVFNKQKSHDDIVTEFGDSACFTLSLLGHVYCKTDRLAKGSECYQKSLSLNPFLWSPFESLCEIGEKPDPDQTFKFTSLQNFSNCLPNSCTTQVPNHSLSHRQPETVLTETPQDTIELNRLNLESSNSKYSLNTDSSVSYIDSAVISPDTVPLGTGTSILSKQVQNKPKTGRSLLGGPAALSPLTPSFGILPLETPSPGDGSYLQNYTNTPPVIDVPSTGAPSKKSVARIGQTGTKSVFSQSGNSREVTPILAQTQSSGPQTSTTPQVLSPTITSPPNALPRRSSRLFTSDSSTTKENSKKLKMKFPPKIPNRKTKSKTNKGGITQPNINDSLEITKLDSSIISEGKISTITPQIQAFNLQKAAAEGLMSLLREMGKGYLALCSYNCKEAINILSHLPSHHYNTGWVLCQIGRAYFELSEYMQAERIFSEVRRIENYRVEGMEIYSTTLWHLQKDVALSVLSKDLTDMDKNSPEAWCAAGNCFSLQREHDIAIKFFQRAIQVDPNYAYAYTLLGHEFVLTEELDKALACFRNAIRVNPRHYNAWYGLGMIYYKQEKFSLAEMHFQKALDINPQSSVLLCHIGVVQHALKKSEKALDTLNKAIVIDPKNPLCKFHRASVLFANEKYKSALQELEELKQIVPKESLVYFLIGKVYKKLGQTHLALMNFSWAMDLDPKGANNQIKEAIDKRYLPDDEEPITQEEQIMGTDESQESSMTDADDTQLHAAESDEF
UniProt Q9UJX6: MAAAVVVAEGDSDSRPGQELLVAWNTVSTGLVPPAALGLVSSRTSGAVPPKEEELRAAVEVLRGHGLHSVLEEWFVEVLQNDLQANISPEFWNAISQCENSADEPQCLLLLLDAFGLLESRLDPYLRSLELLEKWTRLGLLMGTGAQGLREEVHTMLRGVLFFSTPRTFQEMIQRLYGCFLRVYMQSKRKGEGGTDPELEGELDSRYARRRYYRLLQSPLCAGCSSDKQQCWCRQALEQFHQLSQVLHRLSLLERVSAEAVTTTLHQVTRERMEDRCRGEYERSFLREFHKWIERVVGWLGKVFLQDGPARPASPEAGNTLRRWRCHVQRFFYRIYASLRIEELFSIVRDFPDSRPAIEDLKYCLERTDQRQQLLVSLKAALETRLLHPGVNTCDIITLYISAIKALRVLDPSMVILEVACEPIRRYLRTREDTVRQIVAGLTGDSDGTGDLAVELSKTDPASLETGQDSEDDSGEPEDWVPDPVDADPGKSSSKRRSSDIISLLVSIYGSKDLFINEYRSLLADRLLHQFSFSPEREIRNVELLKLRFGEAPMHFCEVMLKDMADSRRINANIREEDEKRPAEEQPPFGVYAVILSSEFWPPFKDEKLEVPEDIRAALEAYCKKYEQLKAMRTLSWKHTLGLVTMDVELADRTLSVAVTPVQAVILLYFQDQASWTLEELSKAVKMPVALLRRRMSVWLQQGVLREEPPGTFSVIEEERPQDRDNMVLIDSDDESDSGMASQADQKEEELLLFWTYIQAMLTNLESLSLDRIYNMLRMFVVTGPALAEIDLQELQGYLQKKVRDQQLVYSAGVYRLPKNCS
UniProt O94986: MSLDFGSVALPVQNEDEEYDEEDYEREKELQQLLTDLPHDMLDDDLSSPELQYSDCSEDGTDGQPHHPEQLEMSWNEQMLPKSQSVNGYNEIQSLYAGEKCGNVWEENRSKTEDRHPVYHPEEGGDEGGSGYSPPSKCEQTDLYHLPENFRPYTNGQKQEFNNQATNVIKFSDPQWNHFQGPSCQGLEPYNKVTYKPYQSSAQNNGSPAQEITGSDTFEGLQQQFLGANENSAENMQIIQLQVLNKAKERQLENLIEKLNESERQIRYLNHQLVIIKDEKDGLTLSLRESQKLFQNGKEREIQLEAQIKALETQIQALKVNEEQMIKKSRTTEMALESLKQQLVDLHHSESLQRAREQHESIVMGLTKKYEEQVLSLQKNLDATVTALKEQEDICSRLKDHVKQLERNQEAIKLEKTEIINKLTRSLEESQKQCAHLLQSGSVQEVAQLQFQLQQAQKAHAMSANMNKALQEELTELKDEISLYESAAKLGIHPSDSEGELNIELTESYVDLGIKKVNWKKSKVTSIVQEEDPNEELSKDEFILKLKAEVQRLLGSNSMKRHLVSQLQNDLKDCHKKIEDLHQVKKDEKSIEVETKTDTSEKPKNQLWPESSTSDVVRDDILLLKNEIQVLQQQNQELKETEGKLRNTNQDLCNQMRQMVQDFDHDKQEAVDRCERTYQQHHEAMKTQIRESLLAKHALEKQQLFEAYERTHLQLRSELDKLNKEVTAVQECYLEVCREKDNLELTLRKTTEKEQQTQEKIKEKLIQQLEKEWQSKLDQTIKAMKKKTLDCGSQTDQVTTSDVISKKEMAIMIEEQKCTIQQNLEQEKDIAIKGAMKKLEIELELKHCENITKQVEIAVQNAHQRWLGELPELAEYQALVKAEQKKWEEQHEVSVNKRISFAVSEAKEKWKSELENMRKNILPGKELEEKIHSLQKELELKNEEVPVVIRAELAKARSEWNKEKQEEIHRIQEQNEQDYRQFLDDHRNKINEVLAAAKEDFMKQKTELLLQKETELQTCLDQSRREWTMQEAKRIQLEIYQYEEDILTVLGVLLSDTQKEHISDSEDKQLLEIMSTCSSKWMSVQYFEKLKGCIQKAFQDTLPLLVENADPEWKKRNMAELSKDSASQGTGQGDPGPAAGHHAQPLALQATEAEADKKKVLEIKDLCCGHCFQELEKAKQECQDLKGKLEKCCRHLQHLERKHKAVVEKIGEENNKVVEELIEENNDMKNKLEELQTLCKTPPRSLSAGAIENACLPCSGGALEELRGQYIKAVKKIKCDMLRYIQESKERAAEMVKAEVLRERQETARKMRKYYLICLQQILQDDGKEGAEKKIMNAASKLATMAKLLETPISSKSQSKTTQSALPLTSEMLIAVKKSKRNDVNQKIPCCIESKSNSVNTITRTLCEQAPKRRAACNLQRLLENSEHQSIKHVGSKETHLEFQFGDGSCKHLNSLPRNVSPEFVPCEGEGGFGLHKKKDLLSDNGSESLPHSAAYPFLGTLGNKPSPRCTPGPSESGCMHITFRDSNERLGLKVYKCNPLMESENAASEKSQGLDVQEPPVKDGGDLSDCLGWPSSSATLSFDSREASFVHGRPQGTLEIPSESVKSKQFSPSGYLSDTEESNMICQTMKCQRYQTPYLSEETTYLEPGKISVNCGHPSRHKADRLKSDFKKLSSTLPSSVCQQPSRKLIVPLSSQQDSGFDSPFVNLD
UniProt Q8TEP8: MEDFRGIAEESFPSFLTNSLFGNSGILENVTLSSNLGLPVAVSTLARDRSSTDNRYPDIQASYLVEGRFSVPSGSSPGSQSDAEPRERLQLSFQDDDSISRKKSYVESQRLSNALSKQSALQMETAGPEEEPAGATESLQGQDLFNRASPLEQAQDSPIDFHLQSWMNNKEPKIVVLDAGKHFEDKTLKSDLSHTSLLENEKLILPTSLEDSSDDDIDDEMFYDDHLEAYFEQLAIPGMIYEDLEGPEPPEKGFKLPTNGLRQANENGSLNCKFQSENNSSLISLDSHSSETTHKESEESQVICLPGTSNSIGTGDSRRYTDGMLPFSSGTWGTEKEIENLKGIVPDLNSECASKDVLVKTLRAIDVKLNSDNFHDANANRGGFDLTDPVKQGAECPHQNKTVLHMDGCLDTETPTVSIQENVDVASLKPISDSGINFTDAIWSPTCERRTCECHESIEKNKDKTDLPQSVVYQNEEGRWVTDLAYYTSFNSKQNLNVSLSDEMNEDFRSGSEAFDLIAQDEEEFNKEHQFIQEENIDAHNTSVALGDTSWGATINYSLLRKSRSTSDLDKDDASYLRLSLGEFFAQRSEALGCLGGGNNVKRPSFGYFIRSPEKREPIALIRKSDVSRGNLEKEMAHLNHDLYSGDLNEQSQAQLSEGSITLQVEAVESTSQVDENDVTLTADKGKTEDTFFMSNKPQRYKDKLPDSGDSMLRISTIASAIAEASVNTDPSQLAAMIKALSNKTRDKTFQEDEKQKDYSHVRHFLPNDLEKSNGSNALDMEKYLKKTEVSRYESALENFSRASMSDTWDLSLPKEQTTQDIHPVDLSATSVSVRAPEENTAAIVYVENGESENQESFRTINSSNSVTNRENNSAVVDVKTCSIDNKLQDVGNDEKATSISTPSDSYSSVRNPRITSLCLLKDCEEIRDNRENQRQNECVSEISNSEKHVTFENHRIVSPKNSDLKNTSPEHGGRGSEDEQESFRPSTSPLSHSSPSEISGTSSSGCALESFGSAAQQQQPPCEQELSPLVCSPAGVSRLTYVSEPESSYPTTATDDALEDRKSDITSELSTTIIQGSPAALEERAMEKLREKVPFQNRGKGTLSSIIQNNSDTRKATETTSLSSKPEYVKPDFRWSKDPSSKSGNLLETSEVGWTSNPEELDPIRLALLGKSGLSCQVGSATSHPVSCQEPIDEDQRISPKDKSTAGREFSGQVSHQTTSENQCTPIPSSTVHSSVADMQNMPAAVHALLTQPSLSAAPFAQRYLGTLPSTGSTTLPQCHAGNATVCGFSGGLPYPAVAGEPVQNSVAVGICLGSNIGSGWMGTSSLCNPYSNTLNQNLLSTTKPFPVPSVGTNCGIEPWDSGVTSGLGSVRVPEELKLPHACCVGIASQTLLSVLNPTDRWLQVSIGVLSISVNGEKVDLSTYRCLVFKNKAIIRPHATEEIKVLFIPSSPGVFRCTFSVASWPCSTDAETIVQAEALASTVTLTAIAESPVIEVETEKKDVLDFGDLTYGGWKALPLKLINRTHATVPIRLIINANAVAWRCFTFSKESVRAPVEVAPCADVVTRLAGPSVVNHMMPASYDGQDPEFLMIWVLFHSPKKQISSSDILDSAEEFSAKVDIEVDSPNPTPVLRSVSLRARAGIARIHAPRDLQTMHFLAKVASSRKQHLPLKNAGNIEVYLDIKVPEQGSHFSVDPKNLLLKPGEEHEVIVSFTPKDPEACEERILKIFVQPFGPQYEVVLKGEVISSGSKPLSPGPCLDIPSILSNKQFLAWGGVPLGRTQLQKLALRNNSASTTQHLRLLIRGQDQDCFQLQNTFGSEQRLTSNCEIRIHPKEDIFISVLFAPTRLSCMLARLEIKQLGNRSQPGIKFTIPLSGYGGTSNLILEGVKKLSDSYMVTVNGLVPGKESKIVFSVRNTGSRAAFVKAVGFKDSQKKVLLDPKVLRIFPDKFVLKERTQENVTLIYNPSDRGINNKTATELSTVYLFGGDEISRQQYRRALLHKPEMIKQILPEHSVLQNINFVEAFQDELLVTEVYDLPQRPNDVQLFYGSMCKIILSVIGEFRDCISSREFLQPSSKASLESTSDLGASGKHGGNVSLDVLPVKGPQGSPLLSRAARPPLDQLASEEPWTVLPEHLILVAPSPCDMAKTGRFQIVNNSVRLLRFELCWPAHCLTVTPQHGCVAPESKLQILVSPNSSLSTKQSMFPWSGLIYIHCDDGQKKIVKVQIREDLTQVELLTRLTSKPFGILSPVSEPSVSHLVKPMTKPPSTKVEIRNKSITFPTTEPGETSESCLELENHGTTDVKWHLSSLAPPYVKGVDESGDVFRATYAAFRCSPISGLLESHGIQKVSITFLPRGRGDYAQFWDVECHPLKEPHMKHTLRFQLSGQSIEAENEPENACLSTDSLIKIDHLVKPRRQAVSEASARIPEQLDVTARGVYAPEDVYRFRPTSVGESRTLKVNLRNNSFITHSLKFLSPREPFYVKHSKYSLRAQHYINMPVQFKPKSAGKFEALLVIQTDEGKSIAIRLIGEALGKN

Results on five molecules are retold here after article PMC8917351.

For test [1], the target named is APC3–BioID2 (UniProt P30260). The test is described as follows: proximity labelling; BioID2–APC2 or APC3–BioID2 HEK293 cell lines, 50 µM biotin for 24 h; mitotic centrosomes purified on a sucrose gradient, sonified, streptavidin beads overnight, washes with 2% SDS and 500 mM NaCl; mass spectrometry with label-free quantification, three independent repeats.
Test [2] concerns the target BioID2–APC2 (UniProt Q9UJX6). Described as above.

Regarding Cep152 (from UniProt O94986 1-1710), the binding result in test [1] and in test [2] was “binds” each time.

Consider Cep192 (from UniProt Q8TEP8 1-2537), for which the binding entry in test [1] and in test [2] was “binds” each time.

Regarding Cep350 (from UniProt Q5VT06 1-3117), the binding entry in test [1] and in test [2] was “binds” each time.

Consider PCM1 (from UniProt Q15154 1-2024), for which the binding result in test [1] and in test [2] was “no binding” in each case.

B1: Cep131 (protein, UniProt Q9UPN4 1-1083)
chain: MKGTRAIGSVPERSPAGVDLSLTGLPPPVSRRPGSAATTKPIVRSVSVVTGSEQKRKVLEATGPGGSQAINNLRRSNSTTQVSQPRSGSPRPTEPTDFLMLFEGSPSGKKRPASLSTAPSEKGATWNVLDDQPRGFTLPSNARSSSALDSPAGPRRKECTVALAPNFTANNRSNKGAVGNCVTTMVHNRYTPSERAPPLKSSNQTAPSLNNIIKAATCEGSESSGFGKLPKNVSSATHSARNNTGGSTGLPRRKEVTEEEAERFIHQVNQATVTIQRWYRHQVQRRGAGAARLEHLLQAKREEQRQRSGEGTLLDLHQQKEAARRKAREEKARQARRAAIQELQQKRALRAQKASTAERGPPENPRETRVPGMRQPAQELSPTPGGTAHQALKANNTGGGLPAAGPGDRCLPTSDSSPEPQQPPEDRTQDVLAQDAAGDNLEMMAPSRGSAKSRGPLEELLHTLQLLEKEPDVLPRPRTHHRGRYAWASEVTTEDDASSLTADNLEKFGKLSAFPEPPEDGTLLSEAKLQSIMSFLDEMEKSGQDQLDSQQEGWVPEAGPGPLELGSEVSTSVMRLKLEVEEKKQAMLLLQRALAQQRDLTARRVKETEKALSRQLQRQREHYEATIQRHLAFIDQLIEDKKVLSEKCEAVVAELKQEDQRCTERVAQAQAQHELEIKKLKELMSATEKARREKWISEKTKKIKEVTVRGLEPEIQKLIARHKQEVRRLKSLHEAELLQSDERASQRCLRQAEELREQLEREKEALGQQERERARQRFQQHLEQEQWALQQQRQRLYSEVAEERERLGQQAARQRAELEELRQQLEESSSALTRALRAEFEKGREEQERRHQMELNTLKQQLELERQAWEAGRTRKEEAWLLNREQELREEIRKGRDKEIELVIHRLEADMALAKEESEKAAESRIKRLRDKYEAELSELEQSERKLQERCSELKGQLGEAEGENLRLQGLVRQKERALEDAQAVNEQLSSERSNLAQVIRQEFEDRLAASEEETRQAKAELATLQARQQLELEEVHRRVKTALARKEEAVSSLRTQHEAAVKRADHLEELLEQHRRPTPSTK
In the case of B1, the binding entry in test [1] and in test [2] was “binds” each time.
